Molecules are shown by their SMILES. Further values from the same series stand in other lists. Residues, ends and D or L forms follow the SMILES beside them.

These results are taken from patent publication US20100168038A1, “USE OF COMPOUNDS IN COMBINATION WITH GAMMA-IRRADIATION FOR THE TREATMENT OF CANCER” (priority 2006, published 2010).

For this assay, the system named is EL-4 lymphoma cells. Put plainly: Tumor growth of EL-4 lymphoma in C57Bl/6 mice, compound with gamma-irradiation. The format is in vivo. Particulars: EL-4, irradiation + Z-GLA-OH; day 65; single mouse. From the text:
Tumor Growth Experiments. Tumor cells were washed in PBS and resuspended in a volume of 200 micro-l per inoculate. The cells were then inoculated into the right flank at 10^6 per mouse and growth of the tumor was monitored by measurement two times per week. The initiation of anti-tumor treatment of the mice was to some extent individualized according to when tumor growth started in each mouse. The mice were irradiated with 4 Gy prior to tumor inoculation in order to inhibit anti-tumor immune responses. The tumor volume was calculated as the mean volume in mice with tumors growth, according to (a1×a2×a3)/2 (the numbers ai denote tumor diameter, width and depth). The time of first palpation varied between different mice, although the general pattern of growth was similar in virtually all of the mice. In most diagrams a log-scale is used to better visualize the therapeutic effects against small tumors, i.e. the presence of complete rejections. For inhibition of TPPII in vivo we made intraperitoneal injections with 13.8 mg per kg of body weight (14 micro-l of a 50 mM solution/mouse) of the Subtilisin inhibitor Z-Gly-Leu-Ala-OH (Z-GLA-OH, Bachem, Weil am Rhein, Germany) twice per week, diluted into 200 micro-l PBS. All gamma-irradiations were full body exposures. […]

Consider `CC(C)C[C@H](NC(=O)CNC(=O)OCc1ccccc1)C(=O)N[C@@H](C)C(=O)O` [Z-GLA-OH, Z-Gly-Leu-Ala-OH] (HELM PEPTIDE1{[O=C(OCc1ccccc1)[*:2]].G.L.A}$$$$V2.0), for which the tumor volume was 0.10 mm^3.
